Data source: PubChem BioAssay AID1224827 (NIAID, 2016)
This is one part, drawn at random, of about 3,800 reagents tested. In the full data, about 2,200 (57%) got an active call. 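Active means a strong reporter change in either direction; calls are per siRNA, not per gene; qiagen siRNAs gave weaker effects.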 A number with no mark means an inactive call. Not all columns of the deposit are shown.

Test: 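Confirm genes whose knock-down changes LPS-driven TNF promoter activity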 (follow-up of hits)
Cells: RAW264.7 G9 mouse macrophage reporter clone
Knock-down reagent: single siRNA against mouse genes, 100 nM siRNA
Timing: siRNA for 2 days, then LPS about 16 h
Treatment: bacterial lipopolysaccharide (LPS), 10 ng/ml, cells fixed after overnight (about 16 h) stimulation
Measured: 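Imaged nuclear TNF reporter intensity, background removed, scaled per plate and to non-targeting control wells, as z-scores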
Reading the numbers: TNF reporter z-score, mean: higher = stronger Tnf promoter reporter signal
Active means: 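An siRNA is called active when its mean z-score over replicates is at least +2 or at most -2; control wells get no call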

| gene knocked down | PubChem SID | TNF reporter z-score, mean |
| --- | --- | --- |
| Muc19 | SID315488478 | -0.744 |
| Muc19 | SID315488479 | -2.71 (active) |
| Muc19 | SID315488480 | -5.28 (active) |
| Muc19 | SID315488481 | -0.0226 |
| Muc19 | SID315488482 | -0.349 |
| Muc19 | SID315488483 | -3.03 (active) |
| Dync1i2 | SID315484047 | 1.58 |
| Dync1i2 | SID315484048 | -2.48 (active) |
| Dync1i2 | SID315484049 | -4.64 (active) |
| Dync1i2 | SID315484050 | -0.57 |
| Dync1i2 | SID315484051 | -1.37 |
| Dync1i2 | SID315484052 | -1.47 |
| Ch25h | SID315483954 | -0.269 |
| Ch25h | SID315483955 | -3.35 (active) |
| Ch25h | SID315483956 | -5.05 (active) |
| Ch25h | SID315483957 | 2.23 (active) |
| Ch25h | SID315483958 | 1.03 |
| Ch25h | SID315483959 | -1.32 |
| S1pr2 | SID315484215 | 0.583 |
| S1pr2 | SID315484216 | -3.74 (active) |
| S1pr2 | SID315484217 | -4.6 (active) |
| S1pr2 | SID315484218 | 2.42 (active) |
| S1pr2 | SID315484219 | 0.772 |
| S1pr2 | SID315484220 | -1.94 |
| Rps4l | SID315486345 | -0.876 |
| Rps4l | SID315486346 | -1.56 |
| Rps4l | SID315486347 | -2.59 (active) |
| Rps4l | SID315486348 | -0.0138 |
| Rps4l | SID315486349 | -1.14 |
| Rps4l | SID315486350 | -3.05 (active) |

Laid out differently: 2 of the entries above.
gene knocked down | PubChem SID | TNF reporter z-score, mean
Muc19 | SID315488480 | -5.28 (active)
Muc19 | SID315488481 | -0.0226

Further results follow:
| gene knocked down | PubChem SID | TNF reporter z-score, mean |
| --- | --- | --- |
| Capns1 | SID315483867 | -0.378 |
| Capns1 | SID315483868 | -3.93 (active) |
| Capns1 | SID315483869 | -5.22 (active) |
| Capns1 | SID315483870 | -0.814 |
| Capns1 | SID315483871 | -1.11 |
| Capns1 | SID315483872 | -0.695 |
| Slc16a11 | SID315488148 | -2.05 (active) |
| Slc16a11 | SID315488149 | -2.49 (active) |
| Slc16a11 | SID315488150 | -3.29 (active) |
| Slc16a11 | SID315488151 | 2.22 (active) |
| Slc16a11 | SID315488152 | 1.52 |
| Slc16a11 | SID315488153 | 0.367 |
| Cdx1 | SID315483936 | -3.79 (active) |
| Cdx1 | SID315483937 | -5.13 (active) |
| Cdx1 | SID315483938 | -5.21 (active) |
| Cdx1 | SID315483939 | 4.6 (active) |
| Cdx1 | SID315483940 | 3.38 (active) |
| Cdx1 | SID315483941 | -1.58 |
| Gphr | SID315486480 | -2.99 (active) |
| Gphr | SID315486481 | -4.19 (active) |
| Gphr | SID315486482 | -4.3 (active) |
| Gphr | SID315486483 | 0.524 |
| Gphr | SID315486484 | -1.31 |
| Gphr | SID315486485 | -3.65 (active) |
| Lrrc10 | SID315488463 | 4.62 (active) |
| Lrrc10 | SID315488464 | 3.47 (active) |
| Lrrc10 | SID315488465 | -1.82 |
| Lrrc10 | SID315488466 | 1.59 |
| Lrrc10 | SID315488467 | -1.62 |
| Lrrc10 | SID315488468 | -1.62 |
